These are yes or no findings as the source states them, for the method shown. Binding seen in cells or lysates may run through a third protein.
Target: LgBiT-tagged cereblon (CRBN) (UniProt Q96SW2)
Experiment: split reporter

By UniProt entry, the sequences of proteins in these tests, tags left out. Where a name states a change or a piece, a line headed by the entry shows the natural chain unless it says otherwise.
UniProt Q96SW2: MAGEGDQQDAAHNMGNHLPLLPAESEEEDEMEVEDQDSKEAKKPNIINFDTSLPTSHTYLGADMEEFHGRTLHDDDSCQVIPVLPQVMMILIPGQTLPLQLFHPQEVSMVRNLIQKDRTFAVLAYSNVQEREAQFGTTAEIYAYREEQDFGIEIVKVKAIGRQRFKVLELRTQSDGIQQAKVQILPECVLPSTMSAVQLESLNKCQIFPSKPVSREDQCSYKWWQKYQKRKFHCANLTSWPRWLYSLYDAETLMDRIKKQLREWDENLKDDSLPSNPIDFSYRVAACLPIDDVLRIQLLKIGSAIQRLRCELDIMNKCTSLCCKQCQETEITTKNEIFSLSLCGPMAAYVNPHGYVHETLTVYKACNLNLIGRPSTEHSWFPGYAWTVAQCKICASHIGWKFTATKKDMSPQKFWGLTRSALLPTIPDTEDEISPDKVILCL
UniProt Q8TDX7: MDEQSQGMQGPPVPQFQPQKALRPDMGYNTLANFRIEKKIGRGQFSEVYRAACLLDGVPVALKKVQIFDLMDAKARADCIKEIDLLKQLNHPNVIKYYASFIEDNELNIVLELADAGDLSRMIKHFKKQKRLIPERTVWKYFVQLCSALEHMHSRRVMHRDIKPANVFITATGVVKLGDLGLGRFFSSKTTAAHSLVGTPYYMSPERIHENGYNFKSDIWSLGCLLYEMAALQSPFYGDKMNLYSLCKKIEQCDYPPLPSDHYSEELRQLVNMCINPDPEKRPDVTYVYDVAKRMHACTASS

**Q.** “SmBiT-tagged G57N NEK7 mutant (from UniProt Q8TDX7 1-302)” was tested. Which binding did it give?
**A.** no binding

Source: paper doi:10.1101/2024.11.06.622079
